Assay results taken from publication PMC3410863.

Amino acid sequences for entries named in this document (tags omitted). Residues count along the entry.
UniProt P41148, residues 22-804: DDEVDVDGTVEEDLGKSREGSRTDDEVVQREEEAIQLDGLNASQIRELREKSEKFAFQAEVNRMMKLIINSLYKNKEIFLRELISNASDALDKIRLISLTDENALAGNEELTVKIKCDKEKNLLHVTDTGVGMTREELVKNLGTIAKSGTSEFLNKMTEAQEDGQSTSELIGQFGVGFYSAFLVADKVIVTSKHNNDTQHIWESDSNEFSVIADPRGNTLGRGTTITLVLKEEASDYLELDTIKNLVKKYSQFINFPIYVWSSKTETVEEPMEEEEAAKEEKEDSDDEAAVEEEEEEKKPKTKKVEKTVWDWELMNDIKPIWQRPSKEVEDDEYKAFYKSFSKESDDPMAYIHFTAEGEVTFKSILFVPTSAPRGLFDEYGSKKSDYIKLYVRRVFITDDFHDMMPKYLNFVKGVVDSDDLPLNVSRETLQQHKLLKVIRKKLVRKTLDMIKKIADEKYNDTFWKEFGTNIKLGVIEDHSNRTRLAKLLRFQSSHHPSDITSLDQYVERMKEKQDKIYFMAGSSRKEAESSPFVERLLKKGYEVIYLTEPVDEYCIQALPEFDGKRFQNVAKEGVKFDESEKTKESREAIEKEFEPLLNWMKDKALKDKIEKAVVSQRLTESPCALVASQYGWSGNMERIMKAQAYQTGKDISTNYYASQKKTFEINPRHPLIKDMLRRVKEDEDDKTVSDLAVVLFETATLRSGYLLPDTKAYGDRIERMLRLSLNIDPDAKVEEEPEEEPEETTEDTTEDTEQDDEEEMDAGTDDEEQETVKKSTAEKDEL

Assays:
Experiment in all cases: pull-down; intact bacteria (OD600 of 5, washed in PBS) incubated with 5 µg/ml recombinant Gp96, 2 h, 4°C; washed 4 times with PBS; bound Gp96 detected by immunoblot with anti-Gp96; only the binder purified
[1] = molecular target: Bap homologous protein of S. chromogenes C483 (Staphylococcus chromogenes) (UniProt Q4ZHU4)
[2] = molecular target: short Bap protein containing a single repetition (ΔrepBap) (Staphylococcus aureus) (UniProt Q79LN3)
[3] = molecular target: native Bap protein anchored to the cell wall of intact S. aureus V329 (Staphylococcus aureus) (UniProt Q79LN3)
[4] = molecular target: Bap homologous protein of S. hyicus 12 (Staphylococcus hyicus) (UniProt Q4ZHU0)
[5] = molecular target: Bap homologous protein of S. epidermidis C533 (Staphylococcus epidermidis) (UniProt Q4ZHU1)

Measured: binding

recombinant Gp96 protein (SPP-766 Stressgen) (from UniProt P41148 22-804)
binds: [1] | [2] | [3] | [4] | [5]

These are yes or no findings as the source states them, for the method shown. Binding seen in cells or lysates may run through a third protein. Binding calls can cover weak binding; strength is not graded here.
